# The other results are listed elsewhere or left out. Shown are side measurements of this screen, not its main read-out; they come without a call. Most of these compounds were active or inconclusive in the main read-out, so they are no random draw. The note in brackets gives the kind of curve behind each potency; many fits are weak.
# Test: qHTS Assay for Lipid Storage Modulators in Drosophila S3 Cells;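 as to cell number change: cells counted by Cell Tracker Red CMTPX staining in the red channel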
# Settings: BODIPY lipid droplet fluorescence, 18-24 h; for cell number change: measured here: cell count max response, cells fed with added oleic acid
# Summary of the method: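 Laser-scanning cytometry quantifies lipid droplet accumulation (500–530 nm total intensity; droplet/cell object ratio) in oleic acid-fed (400 uM added) Drosophila S3 cells treated with a concentration series. 20 uM Triacsin C defined 100% inhibition.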
# [1] = measured here: lipid fluorescence (Fed channel) AC50, cells fed with added oleic acid
# [2] = measured here: cell number channel AC50, cells fed with added oleic acid
Compound,AC50 [1],cell number change,AC50 [2]
CC(C)Cn1c(CCNC(=O)c2ccco2)nc2ccccc21,"5.17 µM [falling, full curve]",,
S=C(NCCNC(=S)Nc1ccccc1)Nc1ccccc1,,4.4%,
COC(=O)c1ccc(NC(=O)COC(=O)C2CC(=O)N(Cc3ccccc3)C2)cc1 (stereo unspecified),,-83.1%,"14.6 µM [falling, partial curve]"
CCn1c(C(O)c2cc(OC)ccc2OC)nc2ccccc21 (stereo unspecified),"29.1 µM [falling, single point]",-17.1%,
O=C(CN(CC1CCCO1)C(=O)CCC(=O)Nc1ccccn1)NCC1CCCO1 (stereo unspecified),"0.651 µM [falling, full curve]",3.81%,"0.00731 µM [falling, full curve, poor fit]"
Cc1nc2cc(-c3cccc(F)c3)nn2c(C)c1CCC(=O)NC(C)c1ccc2c(c1)OCCO2 (stereo unspecified),"1.46 µM [rising, partial curve]",-13%,
O=C(Nc1cccc(NC(=O)C2C3CC4OC(=O)C2C4C3)c1)c1ccccc1 (stereo unspecified),"0.13 µM [falling, full curve, poor fit]",-4.08%,
O=C(COC(=O)c1ccc(O)cc1)Nc1ccc(OC(F)F)cc1,"6.51 µM [rising, partial curve, poor fit]",16.5%,
CCC(C)C(=O)Nc1nnc(SCC(=O)NC(C)(C)C)s1 (stereo unspecified),,,"0.0184 µM [falling, single point]"
CCOc1ccc(S(=O)(=O)N(CC(=O)NCc2ccncc2)c2ccc(C)cc2)cc1,,7.5%,
O=C(O)CC1C(=O)NCCN1C/C=C/c1ccccc1 (stereo unspecified),"25.9 µM [falling, partial curve, poor fit]",-19.7%,
COc1cccc(NC(=O)COC(=O)CC(NC(N)=O)c2ccc(Cl)cc2)c1 (stereo unspecified),,16.7%,
CNC(=O)NC(=O)CSc1ncc(C(F)(F)F)cc1Cl,"0.651 µM [falling, full curve, poor fit]",-2.99%,
O=C(N/N=C\c1ccc2c(c1)OCO2)c1ccc(Cn2cc(Br)c([N+](=O)[O-])n2)o1,"29.1 µM [falling, single point]",-34.9%,"23.1 µM [falling, single point]"
Cc1ccc(NC(=O)C(=O)NCC2CCCO2)cc1 (stereo unspecified),"0.146 µM [falling, full curve, poor fit]",,"0.146 µM [falling, full curve, poor fit]"
Cc1ccc(C)c(NC(=O)COC(=O)CCCN=C2NS(=O)(=O)c3ccccc32)c1,"0.92 µM [rising, full curve, poor fit]",11.2%,
CCCC(=O)C1=C(O)C(C(=O)OC)C(C)(C)CC1=Nc1ccc(N)cc1 (stereo unspecified),"0.366 µM [rising, full curve, poor fit]",12.9%,"0.326 µM [rising, partial curve, poor fit]"
COCCn1c(SCC(=O)N2CCCCCC2)nc2c([nH]c3ccccc32)c1=O,"29.1 µM [falling, single point]",-23.6%,
COc1ccccc1-c1nc2ccccc2c(=O)n1O,,18.4%,
Cc1cccc(NS(=O)(=O)c2cc(C(=O)NCCC3=CCCCC3)ccc2Cl)c1,,75.7%,"6.51 µM [falling, partial curve, poor fit]"
Cc1ccnc(NC(=O)CNC(=O)c2ccc3ccccc3c2)c1,,41.6%,"23.1 µM [rising, single point]"

Compound,AC50 [1],cell number change,AC50 [2]
Cc1nc(CC(=O)O)c(-c2ccccc2)s1,,-5.55%,
C=C(C)c1cccc(C(C)(C)NC(=O)N2CCCCC2CC)c1 (stereo unspecified),"0.146 µM [falling, full curve]",10.3%,
COc1ccc(NC(=O)CSCC(=O)NCc2ccco2)cc1,"29.1 µM [falling, single point]",-50%,"4.11 µM [falling, partial curve]"
O=C(CNC(=O)c1ccco1)OCC(=O)c1ccc2ccccc2c1,,-7.1%,"4.61 µM [falling, single point]"
Cc1ccc(OCCOC(=O)c2nc3nccc(C)n3n2)cc1,,15.3%,
CS(=O)(=O)N1CCN(c2ccccc2NC(=O)c2ccc(-c3ccc(Br)cc3)o2)CC1,,,"0.58 µM [rising, single point]"
CCOC(=O)N1CCC(NC(=O)c2cc(C(=O)Nc3ccc(F)cc3F)ccc2CO)CC1,"7.31 µM [rising, single point]",-15.2%,
CC(CNC(=O)c1cccc(Br)c1)n1cncn1 (stereo unspecified),"0.651 µM [rising, single point]",3.16%,
COc1ccccc1N1CCN(C(=O)c2ccc(N(C)S(=O)(=O)c3ccccc3)cc2)CC1,,16.1%,
Cc1cccc(-c2cccc(NC(=O)C3CCCN(C(=O)c4ocnc4C)C3)c2)c1 (stereo unspecified),,,"6.51 µM [falling, single point]"
NS(=O)(=O)c1ccc(NC(=O)CSc2nc3ccccc3nc2N2CCOCC2)cc1,"9.2 µM [falling, partial curve]",2.59%,
O=C1COc2ccc(S(=O)(=O)CCC(=O)N3CCN(c4cccc(Cl)c4)CC3)cc2N1,"3.26 µM [rising, single point]",8.06%,
COc1ccccc1NC(=O)Cc1cccs1,"10.3 µM [rising, partial curve]",-15.8%,
COc1ccc(Br)cc1/C=N/NC(=O)C(c1ccncc1)N1CCOCC1 (stereo unspecified),"0.92 µM [falling, full curve, poor fit]",2.2%,
O=C(NCCOc1ccccc1)c1cc2ccccc2o1,"0.146 µM [rising, full curve, poor fit]",-25.8%,
COc1ccc(N2CC(C(=O)Nc3ccc(S(=O)(=O)N4CCOCC4)cc3)CC2=O)cc1 (stereo unspecified),"0.13 µM [falling, full curve, poor fit]",-24.1%,"0.0184 µM [falling, full curve, poor fit]"
CCOC(=O)c1ccc(S(=O)(=O)N2CCN(C(=O)C3CSC4(C)CCC(=O)N34)CC2)cc1 (stereo unspecified),"29.1 µM [rising, single point]",5.5%,
CC(C)c1cccc(C(C)C)c1OC(=O)[C@H]1OC(c2ccc(Br)cc2)=C[C@@H]1c1ccc(Br)cc1,,-50.7%,"9.2 µM [falling, single point]"
O=C(CCNS(=O)(=O)c1ccccc1C(F)(F)F)N1CCCCCCC1,"8.2 µM [falling, partial curve, poor fit]",4.03%,
COc1ccccc1OCc1ccc(C(=O)N(C)C)o1,"0.651 µM [rising, single point]",,
COC(=O)c1c(C)[nH]c(C(=O)CN(C)CC(=O)Nc2cccc(F)c2)c1C,"16.4 µM [rising, single point]",2.2%,

Compound,AC50 [1],cell number change,AC50 [2]
CCOC(=O)NC(=O)CSc1nc2ccc(OCC)cc2[nH]1,"4.11 µM [falling, single point]",-18.4%,
Cc1cc(NS(=O)(=O)c2ccc(NC(=O)COc3ccc(Br)cc3)cc2)nc(C)n1,"29.1 µM [falling, single point]",,
CCN(CC)CCSc1nnc2c3cc(C)ccc3n(Cc3ccccc3)c2n1,,5.73%,
COCCNC(=O)COc1ccc(Nc2ccccc2)cc1,,13.1%,
Cc1cccc2c(=O)cc(C)n(Cc3ccccc3)c12,"0.731 µM [rising, full curve]",-12.1%,
CCOc1c2ccc(C(=O)N[C@H](C)C3CCCCC3)cc2nn1CCOC,,-12.2%,
Cc1ccc(-n2[nH]c(C)c(CCC#N)c2=O)cc1,"0.164 µM [rising, full curve, poor fit]",,
CCC(C)Sc1nc2c(c(=O)[nH]1)C(c1cccs1)C1=C(CCCC1=O)N2 (stereo unspecified),"23.1 µM [falling, partial curve]",-49.3%,"23.1 µM [falling, partial curve]"
Cc1ccc(NC(=O)c2ccc(C)cc2)cc1,"29.1 µM [rising, single point]",20.2%,
Cc1nc2c(C)cccc2cc1C(=O)N/N=C/c1ccc(N(C)C)cc1,,14.7%,
Cc1nn(CC(=O)NC2CCC(C)CC2)c(C)c1[N+](=O)[O-] (stereo unspecified),"0.0651 µM [falling, full curve, poor fit]",-4.85%,
COc1cccc(CNC(=O)c2cccc(S(=O)(=O)N3CCN(c4ccc(F)cc4)CC3)c2)c1,"2.06 µM [rising, partial curve]",17.1%,
Cc1ccc(NC(=O)CSc2nc3nc(C)cc(C)c3c(=O)[nH]2)cc1,,-37.4%,"29.1 µM [falling, single point]"
COc1ccc(CNC(=O)C23CC4CC(CC(Br)(C4)C2)C3)cc1,"6.51 µM [rising, single point]",13.9%,
C(=C\c1nccc2c1[nH]c1ccccc12)/c1ccccc1,"29.1 µM [falling, single point]",40.3%,"11.6 µM [rising, partial curve, poor fit]"
Cc1cccc(NC(=O)c2n[nH]c([N+](=O)[O-])c2Br)c1C,"29.1 µM [falling, single point]",,
COC(=O)/C(C#N)=C/c1c(Oc2cccc(C)c2)nc2ccccn2c1=O,"1.03 µM [rising, partial curve, poor fit]",5.38%,"0.326 µM [rising, single point]"
COc1cccc(NC(=O)c2csc3c2CCCC3)c1,"0.103 µM [rising, full curve, poor fit]",45.6%,"6.51 µM [falling, partial curve, poor fit]"
COc1ccc(NC(=O)c2ccco2)cc1NC(=O)c1ccc(Br)o1,"0.259 µM [rising, partial curve, poor fit]",,

# 3 entries drawn at random from those above, as already listed:
Compound,AC50 [1],cell number change,AC50 [2]
CCOc1c2ccc(C(=O)N[C@H](C)C3CCCCC3)cc2nn1CCOC,,-12.2%,
C(=C\c1nccc2c1[nH]c1ccccc12)/c1ccccc1,"29.1 µM [falling, single point]",40.3%,"11.6 µM [rising, partial curve, poor fit]"
COc1ccc(CNC(=O)C23CC4CC(CC(Br)(C4)C2)C3)cc1,"6.51 µM [rising, single point]",13.9%,
